# Results as given in the supplement of paper PMC12067093, “Discovery and optimisation of a covalent ligand for TRIM25 and its application to targeted protein ubiquitination” (Chemical Science, 2025).
# Sequences of proteins named here, by UniProt entry; tags and fusion partners are left off. A change or cut given only in a name is not applied to a line headed by its entry.
# UniProt Q27J81, whole entry, looked up: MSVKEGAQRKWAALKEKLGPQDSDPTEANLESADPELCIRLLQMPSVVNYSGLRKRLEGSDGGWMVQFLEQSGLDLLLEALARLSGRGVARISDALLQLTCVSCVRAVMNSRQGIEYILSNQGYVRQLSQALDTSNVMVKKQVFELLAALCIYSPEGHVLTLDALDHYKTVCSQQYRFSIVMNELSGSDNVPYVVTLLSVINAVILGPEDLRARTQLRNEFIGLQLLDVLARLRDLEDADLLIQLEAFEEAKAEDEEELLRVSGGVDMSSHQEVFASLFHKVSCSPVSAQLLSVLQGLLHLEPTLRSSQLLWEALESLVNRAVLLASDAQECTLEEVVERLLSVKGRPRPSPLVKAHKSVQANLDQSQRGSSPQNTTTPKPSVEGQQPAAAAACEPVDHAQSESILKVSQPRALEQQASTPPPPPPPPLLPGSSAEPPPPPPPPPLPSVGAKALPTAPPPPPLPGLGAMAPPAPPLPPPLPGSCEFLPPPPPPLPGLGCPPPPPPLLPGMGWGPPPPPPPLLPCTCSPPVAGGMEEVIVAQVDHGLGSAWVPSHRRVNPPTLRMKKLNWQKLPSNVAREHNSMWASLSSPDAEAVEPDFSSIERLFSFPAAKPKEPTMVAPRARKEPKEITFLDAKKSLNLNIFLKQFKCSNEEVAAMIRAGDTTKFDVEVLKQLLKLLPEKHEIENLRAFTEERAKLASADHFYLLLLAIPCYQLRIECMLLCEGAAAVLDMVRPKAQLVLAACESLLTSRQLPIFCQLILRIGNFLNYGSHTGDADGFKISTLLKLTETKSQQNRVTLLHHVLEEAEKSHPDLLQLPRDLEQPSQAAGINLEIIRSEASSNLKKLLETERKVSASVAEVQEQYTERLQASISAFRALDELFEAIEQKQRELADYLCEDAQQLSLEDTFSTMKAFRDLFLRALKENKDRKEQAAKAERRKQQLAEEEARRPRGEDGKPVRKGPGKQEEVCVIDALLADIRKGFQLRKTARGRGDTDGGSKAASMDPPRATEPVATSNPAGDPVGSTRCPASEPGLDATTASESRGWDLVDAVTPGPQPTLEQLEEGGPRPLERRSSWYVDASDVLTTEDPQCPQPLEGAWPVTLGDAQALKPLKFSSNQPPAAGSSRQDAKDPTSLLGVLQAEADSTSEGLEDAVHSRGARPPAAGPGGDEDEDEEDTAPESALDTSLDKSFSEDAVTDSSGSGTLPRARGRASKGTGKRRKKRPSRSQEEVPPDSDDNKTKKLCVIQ
# UniProt Q9NSE4: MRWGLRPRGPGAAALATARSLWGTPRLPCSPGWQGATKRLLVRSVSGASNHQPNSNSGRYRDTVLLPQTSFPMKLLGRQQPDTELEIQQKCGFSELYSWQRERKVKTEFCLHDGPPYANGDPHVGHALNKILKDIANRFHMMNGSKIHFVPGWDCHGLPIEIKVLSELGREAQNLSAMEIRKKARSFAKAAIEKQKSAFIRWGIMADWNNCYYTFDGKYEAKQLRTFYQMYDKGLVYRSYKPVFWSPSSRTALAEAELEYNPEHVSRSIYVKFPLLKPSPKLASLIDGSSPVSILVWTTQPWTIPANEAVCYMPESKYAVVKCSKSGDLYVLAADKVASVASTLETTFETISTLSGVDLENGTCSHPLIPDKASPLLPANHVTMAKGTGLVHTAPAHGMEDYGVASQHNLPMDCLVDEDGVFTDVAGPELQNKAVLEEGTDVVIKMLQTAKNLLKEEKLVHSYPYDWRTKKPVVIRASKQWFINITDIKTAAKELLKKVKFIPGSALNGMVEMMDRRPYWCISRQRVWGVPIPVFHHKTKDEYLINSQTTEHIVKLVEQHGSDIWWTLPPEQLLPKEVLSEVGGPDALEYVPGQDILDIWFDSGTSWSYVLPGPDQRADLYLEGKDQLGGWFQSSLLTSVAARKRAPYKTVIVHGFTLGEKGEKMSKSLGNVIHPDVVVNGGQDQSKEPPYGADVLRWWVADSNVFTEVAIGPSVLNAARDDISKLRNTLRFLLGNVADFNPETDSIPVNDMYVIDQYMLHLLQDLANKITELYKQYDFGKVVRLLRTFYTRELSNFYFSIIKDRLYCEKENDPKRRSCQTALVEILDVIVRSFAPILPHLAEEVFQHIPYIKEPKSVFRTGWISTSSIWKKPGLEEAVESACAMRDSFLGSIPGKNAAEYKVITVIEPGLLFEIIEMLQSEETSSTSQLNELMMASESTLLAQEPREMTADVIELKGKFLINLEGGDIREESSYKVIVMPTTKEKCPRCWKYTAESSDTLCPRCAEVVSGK
# UniProt P41252: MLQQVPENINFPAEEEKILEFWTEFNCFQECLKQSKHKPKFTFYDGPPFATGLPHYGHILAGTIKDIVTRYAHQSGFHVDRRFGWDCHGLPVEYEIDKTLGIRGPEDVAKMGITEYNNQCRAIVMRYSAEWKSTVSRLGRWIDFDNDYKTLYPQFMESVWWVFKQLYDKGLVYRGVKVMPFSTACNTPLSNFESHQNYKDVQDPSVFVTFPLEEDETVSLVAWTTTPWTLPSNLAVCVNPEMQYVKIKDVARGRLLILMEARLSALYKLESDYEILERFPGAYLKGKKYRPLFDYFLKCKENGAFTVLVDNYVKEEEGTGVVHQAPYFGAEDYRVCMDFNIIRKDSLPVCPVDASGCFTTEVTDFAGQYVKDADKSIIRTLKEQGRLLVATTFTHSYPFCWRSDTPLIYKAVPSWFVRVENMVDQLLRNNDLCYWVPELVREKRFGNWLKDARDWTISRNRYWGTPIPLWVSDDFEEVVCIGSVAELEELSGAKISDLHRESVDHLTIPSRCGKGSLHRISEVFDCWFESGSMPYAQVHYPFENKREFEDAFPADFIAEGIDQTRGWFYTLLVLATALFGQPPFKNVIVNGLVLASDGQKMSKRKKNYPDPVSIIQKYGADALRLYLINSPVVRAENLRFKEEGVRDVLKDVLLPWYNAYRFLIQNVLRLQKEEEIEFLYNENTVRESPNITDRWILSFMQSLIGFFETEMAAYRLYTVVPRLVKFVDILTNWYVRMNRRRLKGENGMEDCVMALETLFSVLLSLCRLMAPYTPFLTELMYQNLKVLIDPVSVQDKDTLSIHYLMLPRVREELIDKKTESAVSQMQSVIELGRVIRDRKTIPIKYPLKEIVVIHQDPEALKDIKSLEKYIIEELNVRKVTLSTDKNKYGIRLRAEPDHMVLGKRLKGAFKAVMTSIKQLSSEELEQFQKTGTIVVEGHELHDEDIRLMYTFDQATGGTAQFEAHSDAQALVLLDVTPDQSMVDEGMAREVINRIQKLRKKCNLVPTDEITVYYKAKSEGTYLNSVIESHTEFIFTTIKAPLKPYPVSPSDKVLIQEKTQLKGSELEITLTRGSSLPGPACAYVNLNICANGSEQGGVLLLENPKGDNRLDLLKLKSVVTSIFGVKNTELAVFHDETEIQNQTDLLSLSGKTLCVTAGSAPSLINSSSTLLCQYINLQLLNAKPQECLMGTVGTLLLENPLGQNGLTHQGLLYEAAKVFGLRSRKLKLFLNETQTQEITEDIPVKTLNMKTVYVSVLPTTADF
# UniProt Q9BW83: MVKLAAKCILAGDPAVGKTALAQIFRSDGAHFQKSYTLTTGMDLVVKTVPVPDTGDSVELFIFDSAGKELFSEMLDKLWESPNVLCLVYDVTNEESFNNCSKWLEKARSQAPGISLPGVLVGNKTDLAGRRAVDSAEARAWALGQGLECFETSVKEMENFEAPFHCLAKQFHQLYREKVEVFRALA
# UniProt Q9H0C8: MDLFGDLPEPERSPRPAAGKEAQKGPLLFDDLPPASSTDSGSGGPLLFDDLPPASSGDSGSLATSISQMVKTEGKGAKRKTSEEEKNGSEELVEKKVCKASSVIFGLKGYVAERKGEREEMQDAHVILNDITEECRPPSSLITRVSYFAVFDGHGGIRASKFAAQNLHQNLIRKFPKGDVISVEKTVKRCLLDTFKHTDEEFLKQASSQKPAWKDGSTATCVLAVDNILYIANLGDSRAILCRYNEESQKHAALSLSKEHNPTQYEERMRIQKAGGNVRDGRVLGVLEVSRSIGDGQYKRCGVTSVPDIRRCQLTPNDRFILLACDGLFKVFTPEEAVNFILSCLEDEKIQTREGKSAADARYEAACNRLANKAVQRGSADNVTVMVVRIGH
# UniProt Q13418: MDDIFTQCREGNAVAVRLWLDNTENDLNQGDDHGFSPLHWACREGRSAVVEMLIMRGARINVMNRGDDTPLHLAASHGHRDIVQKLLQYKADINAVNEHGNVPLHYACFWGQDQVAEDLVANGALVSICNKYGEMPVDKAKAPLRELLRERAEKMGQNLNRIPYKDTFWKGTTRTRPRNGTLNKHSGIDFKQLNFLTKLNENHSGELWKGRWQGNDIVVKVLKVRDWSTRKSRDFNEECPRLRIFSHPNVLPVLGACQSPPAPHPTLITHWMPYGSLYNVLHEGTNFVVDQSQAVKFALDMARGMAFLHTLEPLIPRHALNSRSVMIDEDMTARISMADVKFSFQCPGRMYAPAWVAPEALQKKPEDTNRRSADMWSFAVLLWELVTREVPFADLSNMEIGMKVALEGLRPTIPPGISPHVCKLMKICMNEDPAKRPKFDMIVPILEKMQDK
# UniProt Q9HBG6: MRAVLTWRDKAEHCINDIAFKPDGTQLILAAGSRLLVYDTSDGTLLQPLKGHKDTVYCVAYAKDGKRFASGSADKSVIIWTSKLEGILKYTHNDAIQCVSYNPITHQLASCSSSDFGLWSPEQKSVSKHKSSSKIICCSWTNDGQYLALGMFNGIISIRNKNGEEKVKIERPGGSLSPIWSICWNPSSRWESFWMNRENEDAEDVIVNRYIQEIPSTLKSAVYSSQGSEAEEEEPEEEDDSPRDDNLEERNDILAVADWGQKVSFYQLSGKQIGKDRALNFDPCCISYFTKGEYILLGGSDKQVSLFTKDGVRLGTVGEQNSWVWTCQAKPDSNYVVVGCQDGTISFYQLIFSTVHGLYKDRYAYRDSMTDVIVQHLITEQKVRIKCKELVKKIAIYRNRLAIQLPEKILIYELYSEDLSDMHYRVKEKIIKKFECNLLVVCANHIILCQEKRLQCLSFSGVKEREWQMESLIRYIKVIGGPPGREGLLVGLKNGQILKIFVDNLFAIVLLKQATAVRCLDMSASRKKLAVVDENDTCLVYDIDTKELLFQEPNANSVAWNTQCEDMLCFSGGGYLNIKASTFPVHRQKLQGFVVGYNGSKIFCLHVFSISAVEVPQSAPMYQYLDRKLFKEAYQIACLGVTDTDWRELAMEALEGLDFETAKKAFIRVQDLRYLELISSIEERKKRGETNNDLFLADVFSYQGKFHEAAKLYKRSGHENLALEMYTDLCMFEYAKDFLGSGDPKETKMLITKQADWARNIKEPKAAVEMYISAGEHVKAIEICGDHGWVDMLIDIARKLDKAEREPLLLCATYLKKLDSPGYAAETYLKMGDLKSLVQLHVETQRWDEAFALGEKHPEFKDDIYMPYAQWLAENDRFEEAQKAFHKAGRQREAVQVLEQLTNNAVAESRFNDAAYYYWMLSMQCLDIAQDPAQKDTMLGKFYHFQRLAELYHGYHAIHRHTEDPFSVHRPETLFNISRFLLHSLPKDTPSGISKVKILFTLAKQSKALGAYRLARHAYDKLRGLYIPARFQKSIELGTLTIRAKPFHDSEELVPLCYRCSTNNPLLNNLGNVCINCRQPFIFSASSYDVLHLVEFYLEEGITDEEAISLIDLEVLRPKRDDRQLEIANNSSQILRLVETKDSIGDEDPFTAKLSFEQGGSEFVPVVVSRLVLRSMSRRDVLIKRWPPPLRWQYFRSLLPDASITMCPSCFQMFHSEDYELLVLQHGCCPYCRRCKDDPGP
# UniProt Q8WYA0: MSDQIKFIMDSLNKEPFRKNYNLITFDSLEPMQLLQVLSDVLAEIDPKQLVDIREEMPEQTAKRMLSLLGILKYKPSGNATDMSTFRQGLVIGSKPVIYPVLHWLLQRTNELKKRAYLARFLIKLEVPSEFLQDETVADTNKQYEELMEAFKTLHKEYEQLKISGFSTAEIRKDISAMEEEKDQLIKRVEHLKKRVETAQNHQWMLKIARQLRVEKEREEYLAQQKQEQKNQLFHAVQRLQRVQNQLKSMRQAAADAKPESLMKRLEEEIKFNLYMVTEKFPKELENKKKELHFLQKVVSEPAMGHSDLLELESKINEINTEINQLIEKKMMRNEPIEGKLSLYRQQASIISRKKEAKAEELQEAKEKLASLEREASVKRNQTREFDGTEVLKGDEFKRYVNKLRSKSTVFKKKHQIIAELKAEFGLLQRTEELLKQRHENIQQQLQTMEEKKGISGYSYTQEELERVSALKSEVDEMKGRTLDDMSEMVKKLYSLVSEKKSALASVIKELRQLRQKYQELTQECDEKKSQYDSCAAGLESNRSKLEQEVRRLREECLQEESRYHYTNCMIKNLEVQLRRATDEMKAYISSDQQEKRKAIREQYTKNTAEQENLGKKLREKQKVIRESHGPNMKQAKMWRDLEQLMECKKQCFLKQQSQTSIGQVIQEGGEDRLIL
# Some of the results follow.
# Compound: Cc1cc(ccc1-c1ccccc1)C(=O)N1CCCN(CC1)C(=O)CCl [compound 10]
# Test: probe-labelled cysteine peptide fold change vs DMSO (competition) (log2 fold change); higher = less target engagement (more negative = stronger competition)
# Settings: 10 µM; THP-1; incubation time: 4 h
# 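Further: competitive profiling in live THP-1 cells: cysteine peptides tagged with an iodoacetamide desthiobiotin (IA-DTB) probe, intensity after compound treatment relative to DMSO-treated cells.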
row,Target,probe-labelled cysteine peptide fold change
1,IL6R_P08887_121_AGRPAGTVHLLVDVPPEEPQLSCFR (UniProt P08887),-0.092
2,IKBKG_Q9Y6K9_131_CQQQMAEDK (UniProt Q9Y6K9),0.0477
3,INF2_Q27J81_101_ISDALLQLTCVSCVR (UniProt Q27J81),0.0498
4,INF2_Q27J81_104_ISDALLQLTCVSCVR (UniProt Q27J81),0.668
5,IARS2_Q9NSE4_211_WGIMADWNNCYYTFDGK (UniProt Q9NSE4),0.354
6,IARS_P41252_87_RFGWDCHGLPVEYEIDK (UniProt P41252),0.000826
7,HYAL3_O43820_361_CHGHGR (UniProt O43820),0.052
8,IARS_P41252_526_ISEVFDCWFESGSMPYAQVHYPFENKR (UniProt P41252),-3.87e-05
9,IFT27_Q9BW83_149_AWALGQGLECFETSVK (UniProt Q9BW83),-0.0188
10,IDI1_Q13907_39_NCHLNENIEK (UniProt Q13907),-0.0399
11,IMPDH2_P12268_468_FVPYLIAGIQHSCQDIGAK (UniProt P12268),-0.00921
12,ICAM3_P32942_190_DDHGAPFSCR (UniProt P32942),-0.196
13,IARS2_Q9NSE4_1005_CAEVVSGK (UniProt Q9NSE4),0.0246
14,INPP5B_P32019_678_EFCFQNVK (UniProt P32019),0.0158
15,IKZF1_Q13422_71_ACEMNGEECAEDLR (UniProt Q13422),-0.412
16,IDH2_P48735_154_NILGGTVFREPIICK (UniProt P48735),-0.0771
17,IMPACT_Q9P2X3_195_STFQAHLAPVVCPK (UniProt Q9P2X3),-0.422
18,ILF3_Q12906_278_RVLECLASGIVMPDGSGIYDPCEK (UniProt Q12906),0.173
19,IGF2BP2_Q9Y6M1_255_KENSGAAEKPVTIHATPEGTSEACR (UniProt Q9Y6M1),-0.0974

row,Target,probe-labelled cysteine peptide fold change
1,IGF2R_P11717_475_EKEDLLCGATDGK (UniProt P11717),-0.2
2,ILKAP_Q9H0C8_301_CGVTSVPDIRR (UniProt Q9H0C8),0.0304
3,IKZF1_Q13422_175+178_CHLCNYACR (UniProt Q13422),-0.0534
4,ILKAP_Q9H0C8_221_DGSTATCVLAVDNILYIANLGDSR (UniProt Q9H0C8),-0.167
5,ILK_Q13418_42_LWLDNTENDLNQGDDHGFSPLHWACR (UniProt Q13418),-0.0585
6,HUWE1_Q7Z6Z7_3361_ETNCESDRER (UniProt Q7Z6Z7),-0.165
7,ICAM3_P32942_407_ATCPQHLK (UniProt P32942),-0.228
8,IFT122_Q9HBG6_784_AIEICGDHGWVDMLIDIAR (UniProt Q9HBG6),0.0852
9,HUWE1_Q7Z6Z7_3658_RAQCETLSPDGLPEEQPQTTK (UniProt Q7Z6Z7),-0.387
10,IFT81_Q8WYA0_557_LREECLQEESR (UniProt Q8WYA0),0.204
11,IGF2R_P11717_134_VQSSIAFLCGK (UniProt P11717),-0.186
12,INPP5A_Q14642_53_PHFMALHCQEFGGK (UniProt Q14642),-0.142
13,IARS_P41252_185_VMPFSTACNTPLSNFESHQNYK (UniProt P41252),0.0569
14,IGF2R_P11717_572_GNIQLSYSDGDDCGHGK (UniProt P11717),-0.14
15,IDH1_O75874_73_CATITPDEK (UniProt O75874),-0.251
16,IDE_P14735_171_FAQFFLCPLFDESCK (UniProt P14735),-0.0625
17,IKBKG_Q9Y6K9_54_CLEENQELR (UniProt Q9Y6K9),0.0646
18,IARS_P41252_336_VCMDFNIIRK (UniProt P41252),0.0236
19,INPP5D_Q92835_1050_KEPPPCPEPGILSPSIVLTK (UniProt Q92835),-0.314

# Laid out differently: entries from further up
row	Target	probe-labelled cysteine peptide fold change
2	ILKAP_Q9H0C8_301_CGVTSVPDIRR (UniProt Q9H0C8)	0.0304
3	IKZF1_Q13422_175+178_CHLCNYACR (UniProt Q13422)	-0.0534
4	ILKAP_Q9H0C8_221_DGSTATCVLAVDNILYIANLGDSR (UniProt Q9H0C8)	-0.167
5	ILK_Q13418_42_LWLDNTENDLNQGDDHGFSPLHWACR (UniProt Q13418)	-0.0585
6	HUWE1_Q7Z6Z7_3361_ETNCESDRER (UniProt Q7Z6Z7)	-0.165
7	ICAM3_P32942_407_ATCPQHLK (UniProt P32942)	-0.228
8	IFT122_Q9HBG6_784_AIEICGDHGWVDMLIDIAR (UniProt Q9HBG6)	0.0852
9	HUWE1_Q7Z6Z7_3658_RAQCETLSPDGLPEEQPQTTK (UniProt Q7Z6Z7)	-0.387
10	IFT81_Q8WYA0_557_LREECLQEESR (UniProt Q8WYA0)	0.204
11	IGF2R_P11717_134_VQSSIAFLCGK (UniProt P11717)	-0.186
12	INPP5A_Q14642_53_PHFMALHCQEFGGK (UniProt Q14642)	-0.142
